Assay results: the supplement of paper PMC3334620
Whole data set: some 33,000 sequences, median “E-score (-0.5 to 0.5)” near -0.0034, cut for the highest 2% near 0.25. This is one part of the list.

These sequences were tested against T1, Yap3 (UniProt P38749) (assay: PBM E-score (8-mer binding enrichment) (E-score (-0.5 to 0.5)); higher = stronger / more preferred TF binding). Conditions: protein concentration: 100 nM; construct: GST-full length.
T1 sequence: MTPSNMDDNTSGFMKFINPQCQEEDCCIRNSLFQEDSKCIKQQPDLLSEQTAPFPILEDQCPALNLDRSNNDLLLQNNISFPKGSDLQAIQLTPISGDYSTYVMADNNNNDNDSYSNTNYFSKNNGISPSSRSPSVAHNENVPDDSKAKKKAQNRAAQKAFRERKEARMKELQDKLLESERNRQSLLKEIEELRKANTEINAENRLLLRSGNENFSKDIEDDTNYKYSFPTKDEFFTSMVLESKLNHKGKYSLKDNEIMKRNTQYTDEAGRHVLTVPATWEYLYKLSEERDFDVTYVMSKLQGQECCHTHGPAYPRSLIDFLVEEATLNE
Method in brief: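 Detection of bound protein used fluorescent anti-GST, with scans normalised by masliner. The proteins were GST-tagged yeast transcription factors applied at about 100-200 nM to universal all-10-mer Agilent arrays made double-stranded by primer extension. Each ungapped eight-base word, pooled with its reverse complement, was scored with an E-score from the Universal PBM Analysis Suite.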

Row | Sequence | PBM E-score
1 | AGGCATAG | 0.00733
2 | CATTACAG | 0.182
3 | CCCCGGCA | -0.272
4 | ATAGGTGC | -0.062
5 | TCGTAGAA | -0.0144
6 | CATGACGG | -0.0576
7 | AGCACCTA | -0.129
8 | CGCCATCA | -0.148
9 | GGGGTGTA | -0.195
10 | CGGGTTAA | -0.0948
11 | CGGCTACA | -0.0247
12 | GCTTTTCA | 0.0397
13 | AGGCACTC | -0.187
14 | CGTCACGA | 0.0412
15 | CTCTCCCC | -0.22
16 | GTCACGTA | -0.0646
17 | CTCGCGAG | 0.0456
18 | AATGTTGT | 0.128
19 | AATAGATA | 0.267
20 | CCGGCGAA | 0.11
21 | CGGTCCCA | -0.277
22 | AATCCGGG | -0.242
23 | ACCCTGTC | -0.164
24 | AGTAAGTA | 0.221
25 | CACGCCGA | -0.212

Numbers 16 to 19, reprinted for reference:
Row | Sequence | PBM E-score
16 | GTCACGTA | -0.0646
17 | CTCGCGAG | 0.0456
18 | AATGTTGT | 0.128
19 | AATAGATA | 0.267

Next results follow.

Row | Sequence | PBM E-score
26 | GGGCACCA | -0.181
27 | CGGTCGCA | -0.1
28 | GTTCCACA | -0.107
29 | ATGGGTGA | -0.112
30 | CCGACACG | -0.151
31 | CTCTCTAC | 0.111
32 | ATCGAGCA | -0.0793
33 | ATGGTCTC | -0.0905
34 | GGAGCCAC | -0.164
35 | ACTATTAT | 0.123
36 | CCGCTGCG | -0.214
37 | ACTGGTTC | 0.133
38 | ATACGTAA | 0.266
39 | CCAACCAG | -0.152
40 | CGCAGGCA | -0.162
41 | CAAATGGG | 0.0603
42 | GAAGCTAA | -0.136
43 | GATCTGGA | -0.0302
44 | AGCTCGAT | 0.128
45 | ACAGTATA | 0.156
46 | GCTACTCC | 0.0046
47 | CTGTAAAA | 0.17
48 | TCTGGCAA | 0.0515
49 | CGGCGAAG | -0.0772
50 | GTATTGAA | 0.229

In another format: entries from further up
Row	Sequence	PBM E-score
29	ATGGGTGA	-0.112
31	CTCTCTAC	0.111

Remaining list, next part

Row | Sequence | PBM E-score
51 | TATACCAA | 0.203
52 | AGTTCTCA | 0.09
53 | AAAAAATA | 0.287
54 | AGGTTATG | 0.0516
55 | AACAAATC | 0.0915
56 | GTCTACCA | -0.131
57 | TGTCTCAA | -0.0116
58 | CGCGCGTA | -0.00409
59 | GCTATCAA | 0.142
60 | GGCATGAA | 0.0597
61 | GATTAACC | -0.045
62 | AATGCAAA | 0.262
63 | AGAACGCC | -0.109
64 | AATGTAAT | 0.253
65 | CCGCGTCC | 0.0306
66 | ATTCTTAG | 0.085
67 | ACAAACTA | 0.122
68 | GGACGTCA | -0.0403
69 | GGCATCTA | -0.0241
70 | AATTCTCG | 0.13
71 | CCCCCGTC | -0.349
72 | ACACCCTG | -0.133
73 | AACGTCTG | -0.0256
74 | GATTTTCA | 0.175
75 | AGACAGTA | 0.121

Row | Sequence | PBM E-score
76 | AGGGGTAG | -0.236
77 | GAAAGCTA | -0.0996
78 | ACTCAACT | 0.134
79 | TCCACAAA | 0.058
80 | AATCCTAA | 0.0112
81 | AATATCAT | 0.277
82 | CTAGCAAA | 0.0766
83 | AAGGAGAT | 0.0143
84 | ACGAGACT | -0.199
85 | ACCCCTCC | -0.205
86 | AAGCCACT | -0.0481
87 | AATTGGGC | 0.0215
88 | CCTAGTGC | -0.111
89 | AAGCAGAA | 0.147
90 | ACCCTACA | -0.0174
91 | CATTCGAC | 0.0059
92 | CCGCAGGC | -0.126
93 | CGTTCCCC | -0.164
94 | TGAATGCA | 0.103
95 | CTACGGCC | -0.13
96 | CGGGGCAC | -0.299
97 | CCGGAATC | 0.00881
98 | GGAATCCA | -0.119
99 | ACGATTTA | 0.312
100 | ACGTATGA | 0.15

As entered above.
TCCACAAA – PBM E-score: 0.058
ATCGAGCA – PBM E-score: -0.0793
AGAACGCC – PBM E-score: -0.109
ACTATTAT – PBM E-score: 0.123

(list continues)

Row | Sequence | PBM E-score
101 | GGTAACGA | 0.0757
102 | AATCTTGG | 0.00135
103 | CGGCCGTA | -0.0185
104 | CTCTAGCA | -0.227
105 | AAAAAAAA | 0.244
106 | ACTGTAGC | -0.116
107 | AGGAAGGG | -0.27
108 | CAGTGAGC | 0.00937
109 | TCCTCCCA | -0.189
110 | CCGCCAGG | -0.215
111 | CCACGGGA | -0.166
112 | GATTATCC | 0.0968
113 | CACCCACA | -0.0926
114 | TAGACCCA | 0.0172
115 | AGGTACAC | -0.0457
116 | ATAGCATA | 0.164
117 | GCTACTAA | 0.138
118 | AACGCGGA | 0.0662
119 | GCCGGGGA | -0.238
120 | GGAGCCAA | -0.151
121 | CGCCCCCA | -0.171
122 | ATTAGGGG | 0.00966
123 | TGCGACAA | -0.00108
124 | GAAGAAGC | -0.11
125 | ATGGTACA | 0.0415

Row | Sequence | PBM E-score
126 | AGGGGTTG | -0.134
127 | ACCCGAAC | -0.0278
128 | GGAACCGA | -0.144
129 | CCCTCGTA | -0.0833
130 | AGGGCGTG | -0.125
131 | CGCCCGGC | -0.25
132 | AGTATATG | 0.157
133 | CATTGACA | -0.195
134 | GCTGAACC | -0.209
135 | AAGATTCC | 0.0621
136 | ATGAAATC | 0.0892
137 | GGAGTACC | -0.122
138 | ACACCCGA | 0.115
139 | ACCACTGA | -0.101
140 | ATATAGTC | 0.182
141 | CCAATGAA | -0.193
142 | CCCCCTAC | -0.25
143 | CGTGTATC | 0.0353
144 | CATCACAG | 0.0196
145 | CCCGGCGA | -0.0387
146 | CCCCTAAC | 0.0203
147 | GAGCAAAC | 0.0386
148 | AGGACTAT | -0.072
149 | GAAGCGGA | 0.057
150 | ACGCGAGA | 0.128

Row | Sequence | PBM E-score
151 | GCAAACGA | 0.103
152 | CTATCTTC | 0.193
153 | CCAACGCG | 0.00473
154 | AACGCCAT | -0.0723
155 | CACGAAGG | -0.133
156 | AACGACGT | 0.0632
157 | CTGCATGA | -0.19
158 | ATGACCAT | 0.081
159 | CATGGAAG | -0.0349
160 | ATTACATG | 0.248
161 | ATGACGGG | -0.0973
162 | ACTCTGTA | -0.088
163 | AAGCAATC | 0.0764
164 | AAAGTAGC | -0.0458
165 | ATAGGTTC | 0.104
166 | AAGTTTTA | 0.167
167 | GTTCGAAA | 0.213
168 | CGTTATCA | 0.0539
169 | CTTATGAA | 0.0398
170 | TACAGTAA | 0.183
171 | AACCCCCT | -0.382
172 | TCCCGGAA | -0.011
